{"source": "patent US12280051B2", "about": "“Pharmaceutical composition for topical wound treatment” (CONSEJO NACIONAL DE INVESTIGACIONES CIENTIFICAS Y TECNICAS, priority 2021, dated 2025)", "molecules": {"B1": {"name": "DNAse: rh-Dornase alfa (recombinant human DNase, Roche) diluted in mixing solvent; C2 0.97 μg/mL, C4 3.90 μg/mL (protein, UniProt P24855 23-282, looked up)", "Deoxyribonuclease-1": "LKIAAFNIQTFGETKMSNATLVSYIVQILSRYDIALVQEVRDSHLTAVGKLLDNLNQDAPDTYHYVVSEPLGRNSYKERYLFVYRPDQVSAVDSYYYDDGCEPCGNDTFNREPAIVRFFSRFTEVREFAIVPLHAAPGDAVAEIDALYDVYLDVQEKWGLEDVMLMGDFNAGCSYVRPSQWSSIRLWTSPTFQWLIPDSADTTATPTHCAYDRIVVAGMLLRGAVVPDSALPFNFQAAYGLSDQLAQAISDHYPVEVMLK"}}, "test_system": "highly polymerized DNA", "experiment": "DNAse activity halos in DNAse agar and conservation in time", "format": "biochemical", "details": "DNAse 3.90 μg/mL alone (C4); DNAse agar, 24 hours at 32° C.", "text": "DNAse agar is a culture medium that contains highly polymerized DNA and agar as solidifying agents. The DNA is the substratum of the deoxyribonuclease enzyme (DNAse) which hydrolyzes it. This medium allows to detect DNAse activity in different samples and microorganisms. The presence of the enzyme could be visualized adding hydrochloric acid 1N. The hydrolyzed deoxyribonucleic acid presents transparency while the polymerized deoxyribonucleic acid precipitates generating resulting in a opacity on the culture media\nPlates preparation: DNAse agar plates were prepared according to manufacturer recommendations (Britania, CABA, Argentina). A volume of 20 mL of the molten media was employed reaching an agar height of 2 mm in the plates. Wells of 5 mm o diameter were made over the agar using a sterile punch. Therefore, the sown volume in each well was π×r^2×h=π×(2.5 mm)^2×2 mm=40 mm=40 μL. […]\nAnalyzed samples: LAPS, M0, M13, M15, M16 (All gelled with hydroxyethyl cellulose) stored at 25° C. and 4° C. DNAse activity was measured once a week for 6 months. […]\nThen, the plates were rested and were observed up to no more than 5 minutes after adding the HCl. DNase activity was measured analyzing the transparent evanescence around the planting zone recording in millimeters the halos diameter.", "note": "Some entries share one result that the patent states for a list of compounds.", "data": [{"molecule": "B1", "values": [{"measurement": "halos of DNAse activity", "value": "13-15 mm"}]}]}
